In the assay the target is GFP-p38. Nature of the assay: co-IP; GFP-JNK1 (or GFP-p38) and FLAG-MAP2K4 in HEK293 cells, with or without Myc-ZDHHC17; IP of JNK1 (or p38), MAP2K4 detected.

No constants are given. Whether binding was seen depends on the method and setting. In cells and extracts the contact can be indirect. Binding calls can cover weak binding; strength is not graded here. Tags and fused reporters may be left off the sequences shown.

The values that follow come from paper PMC6956818, “Activation of JNK and p38 MAPK Mediated by ZDHHC17 Drives Glioblastoma Multiforme Development and Malignant Progression” (Theranostics, 2020).

B1: Flag-MAP2K4 (protein, UniProt P45985 1-399)
chain: MAAPSPSGGGGSGGGSGSGTPGPVGSPAPGHPAVSSMQGKRKALKLNFANPPFKSTARFTLNPNPTGVQNPHIERLRTHSIESSGKLKISPEQHWDFTAEDLKDLGEIGRGAYGSVNKMVHKPSGQIMAVKRIRSTVDEKEQKQLLMDLDVVMRSSDCPYIVQFYGALFREGDCWICMELMSTSFDKFYKYVYSVLDDVIPEEILGKITLATVKALNHLKENLKIIHRDIKPSNILLDRSGNIKLCDFGISGQLVDSIAKTRDAGCRPYMAPERIDPSASRQGYDVRSDVWSLGITLYELATGRFPYPKWNSVFDQLTQVVKGDPPQLSNSEEREFSPSFINFVNLCLTKDESKRPKYKELLKHPFILMYEERAVEVACYVCKILDQMPATPSSPMYVD
On to B1, for which the binding entry is on record as “binds”.
